Results are given in words; binding and its absence hold for the method and conditions named. Binding can be weak; no strength is given.
Molecular target: Cda4HA (C-terminally HA-tagged secreted Cda4) (Ustilago maydis)
Assay: pull-down; both purified

In the case of “maize antifungal protein 1 (AFP1), AFP1-His (from UniProt B4FUR2)”, the binding is reported as “binds”.

Reference: article PMC10128019
